The test addresses T1, Dok1–Clover (UniProt Q99704).
T1 sequence: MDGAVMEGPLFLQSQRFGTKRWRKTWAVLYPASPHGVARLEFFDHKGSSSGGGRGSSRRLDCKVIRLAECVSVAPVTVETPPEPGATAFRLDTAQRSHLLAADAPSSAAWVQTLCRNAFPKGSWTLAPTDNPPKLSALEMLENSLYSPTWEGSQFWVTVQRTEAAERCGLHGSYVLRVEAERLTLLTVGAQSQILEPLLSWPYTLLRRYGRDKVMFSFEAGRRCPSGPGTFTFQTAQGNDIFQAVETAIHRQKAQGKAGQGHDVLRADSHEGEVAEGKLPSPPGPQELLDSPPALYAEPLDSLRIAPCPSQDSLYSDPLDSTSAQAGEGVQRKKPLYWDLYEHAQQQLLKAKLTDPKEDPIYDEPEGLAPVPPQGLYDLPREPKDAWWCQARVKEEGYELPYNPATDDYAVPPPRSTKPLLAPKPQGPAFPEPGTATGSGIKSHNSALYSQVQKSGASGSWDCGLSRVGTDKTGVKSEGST
The test is described as follows: FRET or BRET; intermolecular FLIM–FRET of tagged protein pairs (Clover or mEmerald donor, mRFP or mScarlet acceptor); mScarlet alone with the donor-tagged protein as negative control. A general note: Bioluminescence resonance energy transfer reports proximity on the nanometre scale.

These are yes or no findings as the source states them, for the method shown. Binding seen in cells or lysates may run through a third protein. Binding can be weak; no strength is given.

In the case of RFP-tagged Cofilin WT, the binding result is “binds”.

These data come from PMC12173946.
